No constants are given. Whether binding was seen depends on the method and setting. In cells and extracts the contact can be indirect.
Biological target: KEAP1-FLAG (human) (UniProt Q14145)
Experiment: co-IP

By UniProt entry, the sequences of proteins in these tests, tags left out.
UniProt Q14145: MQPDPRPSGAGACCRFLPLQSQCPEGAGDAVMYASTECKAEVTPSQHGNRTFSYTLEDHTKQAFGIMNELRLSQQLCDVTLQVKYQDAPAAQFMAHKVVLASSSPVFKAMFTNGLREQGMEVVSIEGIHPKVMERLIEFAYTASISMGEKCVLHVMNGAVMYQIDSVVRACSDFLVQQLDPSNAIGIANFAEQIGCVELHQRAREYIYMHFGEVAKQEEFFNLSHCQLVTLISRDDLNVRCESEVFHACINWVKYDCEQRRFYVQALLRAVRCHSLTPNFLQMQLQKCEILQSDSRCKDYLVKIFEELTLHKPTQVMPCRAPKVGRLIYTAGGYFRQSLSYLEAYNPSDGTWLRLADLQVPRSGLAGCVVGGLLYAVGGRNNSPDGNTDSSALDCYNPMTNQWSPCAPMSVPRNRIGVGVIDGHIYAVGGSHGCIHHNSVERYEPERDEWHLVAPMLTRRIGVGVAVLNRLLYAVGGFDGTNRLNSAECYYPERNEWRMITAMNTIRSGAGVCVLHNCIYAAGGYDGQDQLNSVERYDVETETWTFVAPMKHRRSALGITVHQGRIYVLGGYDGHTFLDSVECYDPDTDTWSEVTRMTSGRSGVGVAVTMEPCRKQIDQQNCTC

Substance: TRIM21-HA (Tripartite motif-containing protein 21) (from UniProt P19474-1 1-475)
- binding: no binding

From article PMC10970474
